Experimental data: the supplement of paper PMC10470496
Counter-ions that a name gives are not always drawn. This is one part of the list. Many values rest on one well or one pass, so single values are uncertain.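 Three clinical Candida auris isolates (clades III, IV and I) from the CDC resistance isolate bank were grown in RPMI-1640 at 35°C. Growth was background-corrected OD600 relative to same-plate vehicle-only wells. Hits required over 50% inhibition in at least two strains and a plate-corrected B-score above 0.1.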

How the values were obtained:
Experiment in all cases: growth relative to vehicle control (OD600 ratio) (fraction); higher = less inhibition
Details in all cases: 24 h
C. auris AR-384 = tested on: C. auris AR-384
C. auris AR-386 = tested on: C. auris AR-386
C. auris AR-387 = tested on: C. auris AR-387

| Structure (SMILES) | growth (C. auris AR-384; 1 µM) | growth (C. auris AR-384; 10 µM) | growth (C. auris AR-386; 1 µM) | growth (C. auris AR-386; 10 µM) | growth (C. auris AR-387; 1 µM) | growth (C. auris AR-387; 10 µM) |
| --- | --- | --- | --- | --- | --- | --- |
| C[N+](C)(C)CCCCCC[N+](C)(C)C [Hexamethonium Dibromide] | 0.58 | 0.67 | 0.52 | 0.93 | 0.66 | 0.72 |
| C[C@H]1O[C@@H](n2cc(F)c(=O)[nH]c2=O)[C@H](O)[C@@H]1O [Doxifluridine] | 0.86 | 0.91 | 1.06 | 1.17 | 0.97 | 1.01 |
| O=C(C1CCCCC1)N1CC(=O)N2CCc3ccccc3C2C1 (stereo not drawn) [Praziquantel] | 0.93 | 0.67 | 0.8 | 0.76 | 0.85 | 0.77 |
| Cc1ccc(NC(=O)C2(c3ccc4c(c3)OC(F)(F)O4)CC2)nc1-c1cccc(C(=O)O)c1 [VX-809 (Lumacaftor)] | 1.3 | 1.55 | 1.32 | 0.85 | 0.78 | 0.63 |
| COC(=O)C1=C(C#N)NC(C)=C(C(=O)OC(C)C)C1c1cccc([N+](=O)[O-])c1 (stereo not drawn) [Nilvadipine] | 0.92 | 1.07 | 0.81 | 0.87 | 1.02 | 0.87 |
| Cc1ccc(O)c([C@H](CCN(C(C)C)C(C)C)c2ccccc2)c1 [Tolterodine tartrate] | 0.93 | 0.86 | 1.08 | 0.92 | 0.96 | 0.96 |
| O=C(O)CCCC[C@@H]1SC[C@@H]2NC(=O)N[C@@H]21 [Biotin (Vitamin B7)] | 0.96 | 0.79 | 1.2 | 0.62 | 0.78 | 0.92 |
| Cc1ccc(C(=O)N(CCCN)[C@@H](c2nc3cc(Cl)ccc3c(=O)n2Cc2ccccc2)C(C)C)cc1 | 0.89 | 0.73 | 0.8 | 1 | 0.76 | 0.92 |
| CCN[C@H]1CN(CCCOC)S(=O)(=O)c2sc(S(N)(=O)=O)cc21 [Brinzolamide] | 0.83 | 0.65 | 0.43 | 0.72 | 0.64 | 0.76 |
| CC1(C)OC(=O)NC1=O [5,5-Dimethyloxazolidine-2,4-dione] | 0.9 | 0.75 | 0.97 | 0.88 | 0.72 | 0.78 |
| COc1cc(C2Oc3cc([C@H]4Oc5cc(O)cc(O)c5C(=O)[C@@H]4O)ccc3OC2CO)ccc1O (stereo partly drawn) [Silibinin] | 0.9 | 0.71 | 0.97 | 1.38 | 0.9 | 0.64 |
| CCOC(=O)/C=C(C)/C=C/C=C(C)/C=C/c1c(C)cc(OC)c(C)c1C [Etretinate] | 1.24 | 1.26 | 0.88 | 1.02 | 0.87 | 0.92 |
| COC(=O)N(C)c1c(N)nc(-c2nn(Cc3ccccc3F)c3ncccc23)nc1N [Riociguat (BAY 63-2521)] | 0.73 | 0.67 | 0.72 | 0.68 | 0.68 | 0.65 |
| CCCCOC(=O)c1ccc(N)cc1 [Butamben] | 1.05 | 1.23 | 1.27 | 1.34 | 1.38 | 1.25 |
| CCN(CC)CCOC(=O)C(c1ccccc1)c1ccccc1 [Adiphenine HCl] | 0.98 | 0.91 | 1.01 | 1.18 | 1.02 | 1.26 |
| C[C@@H]1O[C@@H](OC[C@H]2O[C@@H](Oc3c(-c4ccc(O)c(O)c4)oc4cc(O)cc(O)c4c3=O)[C@H](O)[C@@H](O)[C@@H]2O)[C@H](O)[C@H](O)[C@H]1O [Rutin] | 0.84 | 0.68 | 0.81 | 0.94 | 0.74 | 0.88 |
| CCOc1cc(CC(=O)N[C@@H](CC(C)C)c2ccccc2N2CCCCC2)ccc1C(=O)O [Repaglinide] | 0.92 | 0.65 | 0.57 | 0.67 | 0.84 | 0.69 |
| CC(=O)O[C@@]12CO[C@@H]1C[C@H](O)[C@@]1(C)C(=O)[C@H](O)C3=C(C)[C@@H](OC(=O)[C@H](O)[C@@H](NC(=O)OC(C)(C)C)c4ccccc4)C[C@@](O)([C@@H](OC(=O)c4ccccc4)[C@H]21)C3(C)C [Docetaxel Trihydrate] | 0.69 | 0.63 | 0.82 | 0.67 | 0.69 | 0.74 |
| CCc1cc2c(cc1CC)CC(NC[C@H](O)c1ccc(O)c3[nH]c(=O)ccc13)C2 [Indacaterol Maleate] | 1.01 | 1.43 | 0.84 | 1.32 | 1.17 | 0.91 |
| CC[C@H]1OC(=O)[C@H](C)[C@@H](O[C@H]2C[C@@](C)(OC)[C@@H](O)[C@H](C)O2)[C@H](C)[C@@H](O[C@@H]2O[C@H](C)C[C@H](N(C)C)[C@H]2O)[C@](C)(O)C[C@@H](C)/C(=N\OCOCCOC)[C@H](C)[C@@H](O)[C@]1(C)O [Roxithromycin] | 1.01 | 0.84 | 0.54 | 0.62 | 0.84 | 0.76 |
| CC(C(=O)O)c1ccc(C(=O)c2cccs2)cc1 (stereo not drawn) [Suprofen] | 0.66 | 0.82 | 1 | 0.93 | 0.87 | 1.1 |
| COc1nc(N)nc2c1ncn2[C@@H]1O[C@H](CO)[C@@H](O)[C@@H]1O [Nelarabine] | 0.77 | 1.16 | 1.04 | 0.69 | 0.75 | 0.77 |
| CC1(C)S[C@@H]2[C@H](NC(=O)[C@H](N)c3ccccc3)C(=O)N2[C@H]1C(=O)O [Ampicillin Trihydrate] | 0.66 | 0.63 | 0.53 | 0.63 | 0.63 | 0.79 |
| Cc1ncc([N+](=O)[O-])n1CC(O)CCl (stereo not drawn) [Ornidazole] | 0.93 | 1.15 | 1.1 | 1.16 | 1.03 | 1.08 |
| COc1ccc2[nH]c([S@@+]([O-])Cc3ncc(C)c(OC)c3C)nc2c1 [NEXIUM (esomeprazole magnesium)] | 0.6 | 1.05 | 1.17 | 0.79 | 0.89 | 0.8 |
| CN(C)CCc1c[nH]c2ccc(CS(=O)(=O)N3CCCC3)cc12 [Almotriptan Malate] | 0.79 | 0.84 | 1.05 | 0.97 | 0.97 | 0.56 |
| C[C@H](CCC(=O)O)[C@H]1CC[C@H]2[C@@H]3[C@H](O)C[C@@H]4C[C@H](O)CC[C@]4(C)[C@H]3CC[C@]12C [Chenodeoxycholic Acid] | 1.05 | 1.39 | 0.98 | 1.58 | 1.16 | 1.43 |
| O=C1OC(CN2CCOCC2)CN1/N=C/c1ccc([N+](=O)[O-])o1 (stereo not drawn) [Furaltadone HCl] | 0.9 | 0.99 | 1.01 | 1.35 | 1.05 | 1.32 |

Part of the list above, tab-delimited.
Structure (SMILES)	growth (C. auris AR-384; 1 µM)	growth (C. auris AR-384; 10 µM)	growth (C. auris AR-386; 1 µM)	growth (C. auris AR-386; 10 µM)	growth (C. auris AR-387; 1 µM)	growth (C. auris AR-387; 10 µM)
CCOC(=O)/C=C(C)/C=C/C=C(C)/C=C/c1c(C)cc(OC)c(C)c1C [Etretinate]	1.24	1.26	0.88	1.02	0.87	0.92
COC(=O)N(C)c1c(N)nc(-c2nn(Cc3ccccc3F)c3ncccc23)nc1N [Riociguat (BAY 63-2521)]	0.73	0.67	0.72	0.68	0.68	0.65
CCCCOC(=O)c1ccc(N)cc1 [Butamben]	1.05	1.23	1.27	1.34	1.38	1.25
CCN(CC)CCOC(=O)C(c1ccccc1)c1ccccc1 [Adiphenine HCl]	0.98	0.91	1.01	1.18	1.02	1.26
C[C@@H]1O[C@@H](OC[C@H]2O[C@@H](Oc3c(-c4ccc(O)c(O)c4)oc4cc(O)cc(O)c4c3=O)[C@H](O)[C@@H](O)[C@@H]2O)[C@H](O)[C@H](O)[C@H]1O [Rutin]	0.84	0.68	0.81	0.94	0.74	0.88
CCOc1cc(CC(=O)N[C@@H](CC(C)C)c2ccccc2N2CCCCC2)ccc1C(=O)O [Repaglinide]	0.92	0.65	0.57	0.67	0.84	0.69
